For 5 substances, binding results are on record in doi:10.1101/2024.07.11.603088.

The chains behind the UniProt entries cited, without tags or fusion partners.
UniProt O08900: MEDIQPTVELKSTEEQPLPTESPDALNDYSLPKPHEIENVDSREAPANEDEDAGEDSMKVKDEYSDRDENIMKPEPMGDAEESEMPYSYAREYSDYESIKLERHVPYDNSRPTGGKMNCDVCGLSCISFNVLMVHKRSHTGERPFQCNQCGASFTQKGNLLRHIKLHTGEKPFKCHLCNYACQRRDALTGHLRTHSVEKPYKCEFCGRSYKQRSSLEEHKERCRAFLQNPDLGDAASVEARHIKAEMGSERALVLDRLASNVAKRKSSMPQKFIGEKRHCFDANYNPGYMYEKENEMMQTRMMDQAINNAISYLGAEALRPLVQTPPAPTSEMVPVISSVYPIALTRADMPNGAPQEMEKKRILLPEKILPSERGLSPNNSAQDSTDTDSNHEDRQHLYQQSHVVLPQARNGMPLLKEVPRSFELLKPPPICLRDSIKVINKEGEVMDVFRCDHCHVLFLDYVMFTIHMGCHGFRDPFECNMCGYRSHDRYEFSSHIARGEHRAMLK
UniProt Q03267: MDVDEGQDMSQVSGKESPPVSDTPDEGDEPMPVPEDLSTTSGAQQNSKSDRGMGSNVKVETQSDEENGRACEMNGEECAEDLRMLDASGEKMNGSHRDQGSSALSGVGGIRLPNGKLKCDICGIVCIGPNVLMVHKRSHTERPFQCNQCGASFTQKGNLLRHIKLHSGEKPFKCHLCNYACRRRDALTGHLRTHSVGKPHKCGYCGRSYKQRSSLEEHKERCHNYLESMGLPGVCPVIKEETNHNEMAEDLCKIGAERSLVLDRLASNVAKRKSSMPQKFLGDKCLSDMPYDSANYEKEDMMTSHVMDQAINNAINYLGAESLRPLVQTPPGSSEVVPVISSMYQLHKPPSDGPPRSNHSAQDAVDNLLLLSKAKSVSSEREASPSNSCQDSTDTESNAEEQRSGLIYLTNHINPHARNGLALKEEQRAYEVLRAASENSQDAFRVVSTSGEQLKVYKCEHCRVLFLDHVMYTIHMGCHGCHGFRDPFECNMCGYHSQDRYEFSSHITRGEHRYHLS
UniProt Q9UKT9: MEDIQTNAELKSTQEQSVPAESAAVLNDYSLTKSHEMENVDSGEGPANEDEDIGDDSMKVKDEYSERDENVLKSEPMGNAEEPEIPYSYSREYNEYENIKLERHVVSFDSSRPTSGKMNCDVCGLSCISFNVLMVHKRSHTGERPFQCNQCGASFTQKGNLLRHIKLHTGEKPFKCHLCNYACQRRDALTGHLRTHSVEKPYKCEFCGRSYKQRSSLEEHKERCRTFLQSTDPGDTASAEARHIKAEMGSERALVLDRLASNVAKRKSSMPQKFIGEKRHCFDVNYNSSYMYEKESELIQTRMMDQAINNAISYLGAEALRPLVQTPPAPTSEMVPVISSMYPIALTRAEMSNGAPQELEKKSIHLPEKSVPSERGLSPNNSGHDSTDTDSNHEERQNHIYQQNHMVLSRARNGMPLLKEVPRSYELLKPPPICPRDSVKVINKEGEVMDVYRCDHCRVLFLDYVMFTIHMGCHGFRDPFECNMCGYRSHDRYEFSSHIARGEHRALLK
UniProt Q13422: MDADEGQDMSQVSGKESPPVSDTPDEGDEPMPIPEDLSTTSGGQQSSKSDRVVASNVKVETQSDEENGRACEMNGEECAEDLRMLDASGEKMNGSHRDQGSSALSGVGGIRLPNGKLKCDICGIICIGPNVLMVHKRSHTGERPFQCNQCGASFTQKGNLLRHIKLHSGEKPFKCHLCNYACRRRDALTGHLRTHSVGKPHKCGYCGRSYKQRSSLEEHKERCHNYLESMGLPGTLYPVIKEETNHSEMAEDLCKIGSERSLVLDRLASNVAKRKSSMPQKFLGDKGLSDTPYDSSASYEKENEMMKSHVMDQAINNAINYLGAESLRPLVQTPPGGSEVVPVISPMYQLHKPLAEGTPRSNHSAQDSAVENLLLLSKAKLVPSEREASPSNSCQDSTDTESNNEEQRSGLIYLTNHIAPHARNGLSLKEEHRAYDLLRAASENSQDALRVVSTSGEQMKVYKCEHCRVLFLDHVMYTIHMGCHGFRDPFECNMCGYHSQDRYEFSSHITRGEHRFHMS
UniProt O09106: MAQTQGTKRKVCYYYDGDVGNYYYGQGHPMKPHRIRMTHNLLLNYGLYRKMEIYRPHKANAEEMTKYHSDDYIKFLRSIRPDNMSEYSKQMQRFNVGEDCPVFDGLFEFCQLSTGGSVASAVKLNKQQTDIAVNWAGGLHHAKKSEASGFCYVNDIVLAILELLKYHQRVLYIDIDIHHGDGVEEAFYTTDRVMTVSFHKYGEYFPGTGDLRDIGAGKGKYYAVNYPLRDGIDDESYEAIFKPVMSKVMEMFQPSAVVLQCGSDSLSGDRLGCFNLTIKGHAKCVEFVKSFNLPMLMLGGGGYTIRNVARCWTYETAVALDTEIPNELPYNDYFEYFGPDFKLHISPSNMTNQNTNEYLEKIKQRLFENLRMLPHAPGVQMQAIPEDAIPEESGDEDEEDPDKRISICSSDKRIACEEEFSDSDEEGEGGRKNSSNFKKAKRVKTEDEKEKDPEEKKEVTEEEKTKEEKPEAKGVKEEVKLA

Assay [1] addresses T1, YTHDF2 (mouse, endogenous in CD8 T cells) (mouse (endogenous in mouse CD8 T cells)) (UniProt Q91YT7).
T1 sequence: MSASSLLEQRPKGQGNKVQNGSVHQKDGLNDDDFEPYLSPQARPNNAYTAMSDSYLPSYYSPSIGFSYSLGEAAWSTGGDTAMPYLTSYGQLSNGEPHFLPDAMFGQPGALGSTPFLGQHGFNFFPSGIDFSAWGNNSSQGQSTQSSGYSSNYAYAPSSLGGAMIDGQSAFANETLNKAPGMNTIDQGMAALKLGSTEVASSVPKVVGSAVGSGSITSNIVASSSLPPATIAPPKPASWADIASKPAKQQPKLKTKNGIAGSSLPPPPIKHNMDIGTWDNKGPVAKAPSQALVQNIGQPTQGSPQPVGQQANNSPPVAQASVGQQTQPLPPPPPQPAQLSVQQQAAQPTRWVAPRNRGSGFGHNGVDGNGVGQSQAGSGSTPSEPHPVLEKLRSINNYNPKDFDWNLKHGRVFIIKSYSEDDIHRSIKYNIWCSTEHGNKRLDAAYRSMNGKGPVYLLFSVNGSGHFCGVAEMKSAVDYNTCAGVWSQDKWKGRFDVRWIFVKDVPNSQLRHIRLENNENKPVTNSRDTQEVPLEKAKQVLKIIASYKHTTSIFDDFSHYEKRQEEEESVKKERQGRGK
In words: co-IP.

In assay [2] the target is T1, YTHDF2 (mouse, endogenous in CD8 T cells) (mouse (endogenous in mouse CD8 T cells)). In words: proximity ligation.
The target of the next assay is T2, Flag-tagged WT YTHDF2 (UniProt Q9Y5A9).
T2 sequence: T1 sequence with S202N, S224N
In words: proximity ligation.

In assay [3] the target is T3, YTHDF2 (human, endogenous) (human (endogenous in human CD8 T cells and Jurkat)) (UniProt Q9Y5A9).
T3 sequence: T1 sequence with S202N, S224N
In words: proximity ligation.

Assay [4] concerns the target Aiolos (IKZF3) (mouse, endogenous in CD8 T cells) (mouse (endogenous in mouse CD8 T cells)) (UniProt O08900). In words: proximity ligation.
In assay [5] the target is Ikaros (IKZF1) (mouse, endogenous in CD8 T cells) (mouse (endogenous in mouse CD8 T cells)) (UniProt Q03267). In words: proximity ligation.

Residue numbers refer to the chain shown, from its start. No constants are given. Whether binding was seen depends on the method and setting. In cells and extracts the contact can be indirect. Some results given as binding are weak or reduced against the parent protein; the word gives no strength. For part of these data: Where a sequence is shown, tags or fusion partners need not be part of it.

Turning to “Aiolos (IKZF3) (mouse, endogenous in CD8 T cells) (from UniProt O08900 1-507)”, the binding entry in assay [1] and in assay [2] was “binds” each time.

For the substance “Ikaros (IKZF1) (mouse, endogenous in CD8 T cells) (from UniProt Q03267 1-517)”, the binding entry in assay [1] and in assay [2] was “binds” each time.

In the case of “Aiolos (IKZF3) (human, endogenous) (from UniProt Q9UKT9 1-509)”, the binding result (in the assay with Flag-tagged WT YTHDF2; in assay [3]) was “binds” throughout. For the substance “Ikaros (IKZF1) (human, endogenous) (from UniProt Q13422 1-519)”, the binding entry in assay [3] is on record as “binds”. Take “HDAC1 (mouse, endogenous in CD8 T cells) (from UniProt O09106 1-482) (enzyme)”: the binding result in assay [4] and in assay [5] was “binds” each time.
